The results in this text go back to publication PMC6450876.

Amino acid sequences for entries named in this document (tags omitted).
UniProt O43474: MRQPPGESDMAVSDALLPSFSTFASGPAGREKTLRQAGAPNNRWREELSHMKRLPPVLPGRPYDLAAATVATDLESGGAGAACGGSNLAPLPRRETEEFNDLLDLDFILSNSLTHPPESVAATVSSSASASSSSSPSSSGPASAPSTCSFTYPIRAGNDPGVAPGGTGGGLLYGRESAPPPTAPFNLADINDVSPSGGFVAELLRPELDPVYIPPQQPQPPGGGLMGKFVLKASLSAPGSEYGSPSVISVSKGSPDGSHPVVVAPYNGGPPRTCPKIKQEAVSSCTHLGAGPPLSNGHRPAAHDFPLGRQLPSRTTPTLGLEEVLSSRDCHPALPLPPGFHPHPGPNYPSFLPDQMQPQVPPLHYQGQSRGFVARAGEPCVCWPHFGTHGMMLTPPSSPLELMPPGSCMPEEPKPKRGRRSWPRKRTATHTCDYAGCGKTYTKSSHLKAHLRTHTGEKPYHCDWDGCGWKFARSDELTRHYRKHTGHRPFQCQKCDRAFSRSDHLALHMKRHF

These are yes or no findings as the source states them, for the method shown. In cells and extracts the contact can be indirect. Some results given as binding are weak or reduced against the parent protein; the word gives no strength. For some assays here: Tags and fused reporters may be left off the sequences shown.

Experiment [1] has as its target T1, Flag-SET8 (UniProt Q9NQR1).
T1 sequence: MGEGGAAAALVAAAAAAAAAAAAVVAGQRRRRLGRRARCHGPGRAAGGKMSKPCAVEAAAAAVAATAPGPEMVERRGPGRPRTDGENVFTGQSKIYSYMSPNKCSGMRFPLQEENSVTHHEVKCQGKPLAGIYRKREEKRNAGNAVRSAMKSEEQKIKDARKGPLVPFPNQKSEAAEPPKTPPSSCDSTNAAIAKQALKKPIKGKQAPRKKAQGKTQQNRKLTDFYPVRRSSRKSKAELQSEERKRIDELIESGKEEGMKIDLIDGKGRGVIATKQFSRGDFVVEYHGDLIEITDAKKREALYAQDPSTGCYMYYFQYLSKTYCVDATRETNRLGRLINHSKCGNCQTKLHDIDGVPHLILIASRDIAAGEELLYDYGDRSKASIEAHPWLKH
Briefly: co-IP; HEK293T cells expressing Flag-SET8 and HA-KLF4; extracts immunoprecipitated with antibody against Flag tag (IB: KLF4) or KLF4 (IB: Flag-SET8).

Experiment [2] deals with Krüppel-like factor 4 (KLF4), endogenous in HCC cells (human (endogenous in HCC cell lines)) (UniProt O43474). Description: co-IP; endogenous SET8 and KLF4 in HCC cell lines, immunoprecipitation and blot.

For HA-KLF4 (from UniProt O43474 1-513), the binding result in experiment [1] is listed as “binds”.

B1: SET8, endogenous in HCC cells (protein, UniProt Q9NQR1 1-393)
chain: MGEGGAAAALVAAAAAAAAAAAAVVAGQRRRRLGRRARCHGPGRAAGGKMSKPCAVEAAAAAVAATAPGPEMVERRGPGRPRTDGENVFTGQSKIYSYMSPNKCSGMRFPLQEENSVTHHEVKCQGKPLAGIYRKREEKRNAGNAVRSAMKSEEQKIKDARKGPLVPFPNQKSEAAEPPKTPPSSCDSTNAAIAKQALKKPIKGKQAPRKKAQGKTQQNRKLTDFYPVRRSSRKSKAELQSEERKRIDELIESGKEEGMKIDLIDGKGRGVIATKQFSRGDFVVEYHGDLIEITDAKKREALYAQDPSTGCYMYYFQYLSKTYCVDATRETNRLGRLINHSKCGNCQTKLHDIDGVPHLILIASRDIAAGEELLYDYGDRSKASIEAHPWLKH
Regarding B1, the binding entry in experiment [2] is on record as “binds”.
